# Test results as given in PMC4826232.
# The chains behind the UniProt entries cited, without tags or fusion partners. Where a name states a change or a piece, a line headed by the entry shows the natural chain unless it says otherwise.
# UniProt P30086: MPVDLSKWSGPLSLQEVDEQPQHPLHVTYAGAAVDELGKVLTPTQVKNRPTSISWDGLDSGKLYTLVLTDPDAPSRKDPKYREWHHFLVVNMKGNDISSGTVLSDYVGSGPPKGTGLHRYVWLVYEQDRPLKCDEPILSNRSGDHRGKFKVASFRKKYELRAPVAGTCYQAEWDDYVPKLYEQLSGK
# UniProt P46531: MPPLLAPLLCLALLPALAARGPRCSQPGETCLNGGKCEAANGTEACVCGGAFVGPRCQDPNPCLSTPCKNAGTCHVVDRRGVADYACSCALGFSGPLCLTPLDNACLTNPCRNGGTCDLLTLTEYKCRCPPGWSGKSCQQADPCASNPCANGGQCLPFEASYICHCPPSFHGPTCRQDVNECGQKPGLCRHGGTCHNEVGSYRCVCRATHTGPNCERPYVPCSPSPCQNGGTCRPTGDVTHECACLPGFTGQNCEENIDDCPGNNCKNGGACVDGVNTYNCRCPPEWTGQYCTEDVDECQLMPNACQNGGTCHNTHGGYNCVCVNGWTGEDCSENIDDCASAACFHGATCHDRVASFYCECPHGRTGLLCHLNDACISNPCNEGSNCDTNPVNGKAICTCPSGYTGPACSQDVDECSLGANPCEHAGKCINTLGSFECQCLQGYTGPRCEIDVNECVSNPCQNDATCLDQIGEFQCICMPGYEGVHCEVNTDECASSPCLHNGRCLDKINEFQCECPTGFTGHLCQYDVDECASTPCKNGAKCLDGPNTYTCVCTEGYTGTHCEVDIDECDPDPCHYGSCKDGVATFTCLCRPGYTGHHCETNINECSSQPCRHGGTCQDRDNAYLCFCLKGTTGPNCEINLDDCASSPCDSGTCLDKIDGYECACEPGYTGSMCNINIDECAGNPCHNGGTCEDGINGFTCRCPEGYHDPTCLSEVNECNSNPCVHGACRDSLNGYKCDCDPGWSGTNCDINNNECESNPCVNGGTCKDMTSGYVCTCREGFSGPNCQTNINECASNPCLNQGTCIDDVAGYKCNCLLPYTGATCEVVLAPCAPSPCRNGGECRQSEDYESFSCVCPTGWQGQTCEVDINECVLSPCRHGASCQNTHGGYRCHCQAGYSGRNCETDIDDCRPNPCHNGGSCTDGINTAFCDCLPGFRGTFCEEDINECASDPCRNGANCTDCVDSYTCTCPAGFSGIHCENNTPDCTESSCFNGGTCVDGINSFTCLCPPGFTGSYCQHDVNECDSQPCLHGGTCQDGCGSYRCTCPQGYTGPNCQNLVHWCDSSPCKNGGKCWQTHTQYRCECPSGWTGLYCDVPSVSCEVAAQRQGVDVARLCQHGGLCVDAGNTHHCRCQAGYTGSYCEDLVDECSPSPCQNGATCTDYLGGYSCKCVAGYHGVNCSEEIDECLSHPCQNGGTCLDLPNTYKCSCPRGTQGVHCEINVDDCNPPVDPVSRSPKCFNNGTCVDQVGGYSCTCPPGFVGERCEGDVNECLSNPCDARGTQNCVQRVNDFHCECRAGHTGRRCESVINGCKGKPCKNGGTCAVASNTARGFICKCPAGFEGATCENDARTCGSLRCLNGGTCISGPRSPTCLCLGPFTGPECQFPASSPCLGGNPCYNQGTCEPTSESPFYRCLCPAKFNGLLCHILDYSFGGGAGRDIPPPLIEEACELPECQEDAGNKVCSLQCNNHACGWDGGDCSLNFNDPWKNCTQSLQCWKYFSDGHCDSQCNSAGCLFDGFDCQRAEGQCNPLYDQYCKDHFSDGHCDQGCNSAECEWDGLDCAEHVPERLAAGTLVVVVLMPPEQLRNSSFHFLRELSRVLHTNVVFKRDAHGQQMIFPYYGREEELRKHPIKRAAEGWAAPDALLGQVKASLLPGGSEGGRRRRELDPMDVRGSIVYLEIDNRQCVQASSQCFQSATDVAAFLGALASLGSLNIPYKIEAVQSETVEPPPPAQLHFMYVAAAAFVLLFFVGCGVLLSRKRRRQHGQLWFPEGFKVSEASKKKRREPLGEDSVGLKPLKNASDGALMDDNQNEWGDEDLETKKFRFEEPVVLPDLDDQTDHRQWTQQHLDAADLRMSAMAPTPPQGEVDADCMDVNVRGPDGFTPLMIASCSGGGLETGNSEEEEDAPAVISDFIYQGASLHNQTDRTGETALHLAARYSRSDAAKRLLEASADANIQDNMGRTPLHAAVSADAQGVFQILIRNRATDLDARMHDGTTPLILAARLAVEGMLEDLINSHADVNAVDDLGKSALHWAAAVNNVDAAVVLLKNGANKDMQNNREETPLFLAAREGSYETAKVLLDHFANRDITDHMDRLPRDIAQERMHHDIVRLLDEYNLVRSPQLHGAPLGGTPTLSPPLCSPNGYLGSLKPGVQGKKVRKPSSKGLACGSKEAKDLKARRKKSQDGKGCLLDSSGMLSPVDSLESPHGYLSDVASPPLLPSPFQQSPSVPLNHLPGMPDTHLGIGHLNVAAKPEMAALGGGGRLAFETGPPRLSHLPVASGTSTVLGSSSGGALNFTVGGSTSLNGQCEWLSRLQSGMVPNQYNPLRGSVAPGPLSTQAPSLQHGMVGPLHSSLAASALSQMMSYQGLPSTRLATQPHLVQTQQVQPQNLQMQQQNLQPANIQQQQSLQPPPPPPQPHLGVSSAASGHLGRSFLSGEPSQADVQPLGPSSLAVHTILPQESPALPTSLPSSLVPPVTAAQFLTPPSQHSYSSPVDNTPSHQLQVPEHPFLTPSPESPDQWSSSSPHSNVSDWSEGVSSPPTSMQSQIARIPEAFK
# Results are given in words; binding and its absence hold for the method and conditions named. In cells and extracts the contact can be indirect. Some binding calls cover weakened binding; strength is not graded here.
# Target: FLAG-tagged Raf kinase inhibitory protein (RKIP) (human) (UniProt P30086)
# Test: co-IP; total cell lysates (1 mg) of H1299 or HeLa cells stably overexpressing FLAG-RKIP; IP with anti-FLAG M2 agarose beads, immunoblot with anti-Notch1 antibodies; control cells with pcDNA
row,Substance,binding
1,"Notch1 intracellular domain (NICD), 110 kDa fragment (from UniProt P46531 1754-2555) (domain or fragment)",no binding
2,full-length (FL) Notch1 (300 kDa) (from UniProt P46531 19-2555) (receptor),binds
